Values quoted from earlier work, collected in patent US20080194562A1, “Pyrazole Derivatives For The Inhibition Of Cdk's And Gsk's” (ASTEX THERAPEUTICS LIMITED, priority 2005, published 2008).
For at least one compound, name, drawing or mass did not settle the structure.

Tested on: symptomatic CLL patients
Conditions: initial therapy, v 3% with alkylator-based therapies

## Nc1nc(F)nc2c1ncn2[C@@H]1O[C@H](CO)[C@@H](O)[C@@H]1O [fludarabine]
  rate of complete responses: 27%
